PubChem BioAssay AID686943 – Drosophila RNAi Screening Center – 2013
Aim: 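Fly genes whose loss alters ERK activation after insulin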 (primary screen). Cell system: Drosophila S2R+ haemocyte-like cells expressing YFP-tagged ERK (Rolled). Reagent: long dsRNA against Drosophila genes. Treatment: insulin stimulation versus unstimulated cells; dose and duration not given. Measured: 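Per-plate z-scores of phospho-ERK immunostaining normalised to YFP-tagged ERK, measured with and without insulin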. Direction: replicate 1, z-score of dpERK with insulin and replicate 2, z-score of dpERK with insulin: higher = more active ERK per ERK-YFP after insulin.
The screen tested about 23,000 reagents; this is an unselected part of those that have a named target and a result. 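Extra replicates exist only for a retested subset of genes; insulin dose and duration not given; both raised and lowered dpERK matter.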 Names joined by + are all predicted targets of the reagent. Not all columns of the deposit are shown. The record does not give: the amount of reagent, the time to read-out.

| Target gene | PubChem SID | replicate 1, z-score of dpERK with insulin | replicate 2, z-score of dpERK with insulin |
| --- | --- | --- | --- |
| CG14662 + asRNA:CR43478 | SID104192040 | 0.31 | -0.07 |
| Gycbeta100B | SID104193831 | -0.02 | 0.08 |
| Gycbeta100B | SID104193832 | -1.76 | -0.74 |
| Gycbeta100B | SID104196483 | 0.03 | 1.83 |
| Kyat | SID104195939 | -0.6 | 0.54 |
| CG40298 | SID104201794 | 3.13 | 0.41 |
| CG15916 | SID104199532 | 0.2 | -0.19 |
| Cyp6v1 | SID104200357 | -0.08 | 1.11 |
| CG3483 | SID104184163 | 0.93 | 0.73 |
| Gyg | SID104183642 | -0.81 | -0.95 |
| Gyg | SID104184348 | -0.12 | -0.04 |
| CG31688 + CG31687 | SID104181908 | -0.36 | -0.27 |
| CG9427 | SID104196282 | -0.16 | 0.23 |
| alphaKap4 | SID104189615 | 0.46 | -0.26 |
| CG6073 | SID104195754 | 0.31 | 0.39 |
| CG6073 | SID104202114 | 0.51 | 0.19 |
| JMJD4 | SID104182817 | 0.27 | -0.1 |
| CG15544 | SID104194874 | 1.21 | -0.26 |
| Nplp1 | SID104184162 | -0.17 | 0.28 |
| CG1545 | SID104201250 | -0.16 | -0.24 |
| Orai | SID104185476 | 0.74 | 0.66 |
| Orai | SID104201637 | 1 | 0.75 |
| CG31789 | SID104181437 | 0.82 | 0.71 |
| RabX5 | SID104188400 | 0.05 | 0.63 |
| CG33278 | SID104190128 | -0.26 | 0.38 |
| CG15357 | SID104180179 | 0.75 | 0.6 |
| CG6470 | SID104199786 | -0.33 | -0.25 |
| CG4022 | SID104190187 | -0.14 | 0.5 |
| CG2983 | SID104180350 | -0.48 | 0.57 |
| CG13126 | SID104182014 | 0.4 | 0.43 |
| CG3009 | SID104198055 | -0.54 | -0.64 |
| Ugt303B2 | SID104193990 | 0.19 | 1.04 |
| Ugt303B2 | SID104202223 | 0.28 | 0.21 |
| CCKLR-17D3 | SID104199807 | 0.88 | 2.25 |
| CCKLR-17D3 | SID104199809 | 0.81 | 1.06 |
| CG31826 | SID104183149 | -0.47 | -0.03 |
| CG1965 | SID104192369 | 0.89 | 1.04 |
| CG1965 | SID104201477 | 0.38 | 1.22 |
| Tsp26A | SID104182927 | 1.2 | 0.27 |
| conv | SID104187005 | 0.99 | 0.46 |
| Sgs3 | SID104191072 | -0.35 | 0.03 |
| CG45263 | SID104192474 | 0.57 | 0.16 |
| CG45263 | SID104194149 | 3.09 | 1.02 |
| CG45263 | SID104194152 | 0.01 | 0.85 |
| CG45263 | SID104194153 | -0.82 | 0.65 |
| CG45263 | SID104194155 | -2.3 | -1.7 |
| CG10376 | SID104181841 | 0.54 | 0.05 |
| Osi5 | SID104192068 | -0.14 | 0.34 |
| Kaz1-ORFB | SID104188461 | 0.23 | -0.12 |
| CG17650 | SID104180302 | 0.03 | -0.15 |
| Hesr | SID104199757 | 0.06 | -0.49 |
| Arp3 | SID104189461 | -1.36 | -0.32 |
| Hnf4 | SID104180824 | 0.92 | 0.13 |
| Hnf4 | SID104183136 | -0.98 | -0.32 |
| dah | SID104200112 | -0.61 | -0.51 |
| CG34310 | SID104180735 | 0.11 | -0.12 |
| CG32240 | SID104187885 | -0.3 | 0.1 |

Laid out differently: 3 of the entries above
CG31826 [SID104183149] — replicate 1, z-score of dpERK with insulin = -0.47; replicate 2, z-score of dpERK with insulin = -0.03
CG1965 [SID104192369] — replicate 1, z-score of dpERK with insulin = 0.89; replicate 2, z-score of dpERK with insulin = 1.04
CG1965 [SID104201477] — replicate 1, z-score of dpERK with insulin = 0.38; replicate 2, z-score of dpERK with insulin = 1.22
